Drawing on the supplement of paper PMC10849652, this text covers log2 fold change for 19 targets.

Sequences of proteins named here, by UniProt entry; tags and fusion partners are left off. A change or cut given only in a name is not applied to a line headed by its entry.
UniProt Q96JX3: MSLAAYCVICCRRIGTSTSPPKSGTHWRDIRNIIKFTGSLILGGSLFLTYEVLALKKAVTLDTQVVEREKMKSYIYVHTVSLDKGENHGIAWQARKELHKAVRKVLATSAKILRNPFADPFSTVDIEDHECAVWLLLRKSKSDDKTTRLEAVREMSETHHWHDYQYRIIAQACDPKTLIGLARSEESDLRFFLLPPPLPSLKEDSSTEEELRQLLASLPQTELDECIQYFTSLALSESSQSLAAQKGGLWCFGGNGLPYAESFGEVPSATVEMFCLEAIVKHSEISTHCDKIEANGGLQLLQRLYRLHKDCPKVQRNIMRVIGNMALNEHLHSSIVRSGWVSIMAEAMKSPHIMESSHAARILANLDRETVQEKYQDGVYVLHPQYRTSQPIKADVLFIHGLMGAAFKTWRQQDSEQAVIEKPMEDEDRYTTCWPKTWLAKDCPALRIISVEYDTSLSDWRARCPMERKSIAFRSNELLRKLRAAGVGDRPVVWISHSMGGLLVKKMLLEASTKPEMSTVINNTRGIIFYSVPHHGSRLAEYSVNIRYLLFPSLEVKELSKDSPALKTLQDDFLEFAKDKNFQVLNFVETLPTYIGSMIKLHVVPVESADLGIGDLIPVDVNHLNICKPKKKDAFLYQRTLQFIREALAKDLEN
UniProt Q8NC51: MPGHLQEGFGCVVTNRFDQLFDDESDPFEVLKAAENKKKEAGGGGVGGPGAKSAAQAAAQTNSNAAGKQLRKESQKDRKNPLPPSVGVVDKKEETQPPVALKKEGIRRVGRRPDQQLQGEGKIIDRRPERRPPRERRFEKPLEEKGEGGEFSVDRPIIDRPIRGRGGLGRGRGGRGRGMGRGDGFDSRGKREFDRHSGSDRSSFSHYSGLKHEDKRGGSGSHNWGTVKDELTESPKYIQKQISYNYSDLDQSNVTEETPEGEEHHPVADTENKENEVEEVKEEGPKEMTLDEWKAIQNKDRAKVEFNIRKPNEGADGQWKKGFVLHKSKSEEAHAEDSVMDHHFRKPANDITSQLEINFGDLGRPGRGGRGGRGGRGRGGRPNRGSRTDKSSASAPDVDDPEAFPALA
UniProt Q8NDZ2: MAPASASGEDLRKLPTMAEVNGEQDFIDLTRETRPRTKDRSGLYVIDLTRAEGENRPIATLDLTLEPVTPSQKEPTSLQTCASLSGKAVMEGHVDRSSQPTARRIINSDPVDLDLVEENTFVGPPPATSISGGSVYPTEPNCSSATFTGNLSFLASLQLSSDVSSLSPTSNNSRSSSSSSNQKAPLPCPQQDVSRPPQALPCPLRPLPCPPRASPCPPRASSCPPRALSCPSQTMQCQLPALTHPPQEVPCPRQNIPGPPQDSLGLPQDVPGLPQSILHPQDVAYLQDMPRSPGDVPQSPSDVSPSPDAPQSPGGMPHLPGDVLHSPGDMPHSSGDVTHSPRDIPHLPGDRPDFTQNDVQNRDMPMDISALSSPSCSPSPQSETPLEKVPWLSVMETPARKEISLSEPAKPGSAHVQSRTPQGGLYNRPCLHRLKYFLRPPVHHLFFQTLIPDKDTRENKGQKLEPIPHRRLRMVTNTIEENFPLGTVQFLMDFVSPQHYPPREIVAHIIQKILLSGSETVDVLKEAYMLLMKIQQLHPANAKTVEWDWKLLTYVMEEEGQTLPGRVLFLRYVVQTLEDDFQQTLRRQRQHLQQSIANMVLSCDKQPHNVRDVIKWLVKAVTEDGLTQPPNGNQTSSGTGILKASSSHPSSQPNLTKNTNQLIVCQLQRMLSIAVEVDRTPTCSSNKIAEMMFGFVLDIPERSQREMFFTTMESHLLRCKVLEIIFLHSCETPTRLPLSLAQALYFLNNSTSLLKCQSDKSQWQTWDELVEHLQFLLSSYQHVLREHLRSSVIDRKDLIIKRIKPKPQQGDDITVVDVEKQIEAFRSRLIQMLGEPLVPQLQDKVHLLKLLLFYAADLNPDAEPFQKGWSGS
UniProt Q9NTG7: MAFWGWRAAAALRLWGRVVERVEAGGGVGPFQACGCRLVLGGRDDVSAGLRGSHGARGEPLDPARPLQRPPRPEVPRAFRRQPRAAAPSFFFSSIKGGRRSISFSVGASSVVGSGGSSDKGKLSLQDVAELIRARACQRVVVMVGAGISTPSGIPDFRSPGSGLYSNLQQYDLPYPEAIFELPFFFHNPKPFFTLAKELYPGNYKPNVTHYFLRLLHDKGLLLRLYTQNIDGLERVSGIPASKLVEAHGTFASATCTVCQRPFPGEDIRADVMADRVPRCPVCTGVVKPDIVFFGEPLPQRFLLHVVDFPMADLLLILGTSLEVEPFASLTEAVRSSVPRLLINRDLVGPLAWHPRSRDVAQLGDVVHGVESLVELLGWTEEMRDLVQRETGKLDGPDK
UniProt P55822: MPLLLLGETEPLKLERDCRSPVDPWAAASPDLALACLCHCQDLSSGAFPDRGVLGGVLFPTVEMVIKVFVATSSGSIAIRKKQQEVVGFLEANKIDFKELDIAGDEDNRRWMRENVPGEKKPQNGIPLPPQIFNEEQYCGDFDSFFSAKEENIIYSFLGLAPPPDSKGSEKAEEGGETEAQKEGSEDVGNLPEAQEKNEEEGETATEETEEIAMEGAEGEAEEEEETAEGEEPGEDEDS
UniProt Q8WWX9, whole entry, looked up: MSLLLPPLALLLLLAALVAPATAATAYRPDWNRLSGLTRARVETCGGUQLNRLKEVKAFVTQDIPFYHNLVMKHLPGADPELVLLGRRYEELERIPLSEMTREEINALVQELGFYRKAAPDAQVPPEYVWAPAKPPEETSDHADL
UniProt O75563, whole entry, looked up: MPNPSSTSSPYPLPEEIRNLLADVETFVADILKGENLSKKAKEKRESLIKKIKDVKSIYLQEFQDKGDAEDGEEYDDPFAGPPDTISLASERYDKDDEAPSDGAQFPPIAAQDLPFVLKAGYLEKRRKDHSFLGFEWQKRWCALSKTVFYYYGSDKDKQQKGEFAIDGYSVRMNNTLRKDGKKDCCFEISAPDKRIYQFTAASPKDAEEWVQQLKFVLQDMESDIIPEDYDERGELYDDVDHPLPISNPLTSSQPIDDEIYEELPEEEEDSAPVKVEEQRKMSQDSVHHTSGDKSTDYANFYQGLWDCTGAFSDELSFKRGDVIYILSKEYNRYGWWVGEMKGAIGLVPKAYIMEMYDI
UniProt Q16181: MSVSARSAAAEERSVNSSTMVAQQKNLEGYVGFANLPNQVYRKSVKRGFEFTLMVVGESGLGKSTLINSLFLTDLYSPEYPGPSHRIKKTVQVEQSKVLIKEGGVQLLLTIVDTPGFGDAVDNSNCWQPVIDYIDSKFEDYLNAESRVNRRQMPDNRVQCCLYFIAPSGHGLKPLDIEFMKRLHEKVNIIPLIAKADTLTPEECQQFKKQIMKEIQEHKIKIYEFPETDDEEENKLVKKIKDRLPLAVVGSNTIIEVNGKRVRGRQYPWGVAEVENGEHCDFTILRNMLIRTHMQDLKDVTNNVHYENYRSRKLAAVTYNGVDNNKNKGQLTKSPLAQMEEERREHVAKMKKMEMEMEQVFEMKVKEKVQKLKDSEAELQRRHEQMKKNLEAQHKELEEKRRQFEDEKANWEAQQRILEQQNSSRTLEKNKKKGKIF
UniProt Q9NP31, whole entry, looked up: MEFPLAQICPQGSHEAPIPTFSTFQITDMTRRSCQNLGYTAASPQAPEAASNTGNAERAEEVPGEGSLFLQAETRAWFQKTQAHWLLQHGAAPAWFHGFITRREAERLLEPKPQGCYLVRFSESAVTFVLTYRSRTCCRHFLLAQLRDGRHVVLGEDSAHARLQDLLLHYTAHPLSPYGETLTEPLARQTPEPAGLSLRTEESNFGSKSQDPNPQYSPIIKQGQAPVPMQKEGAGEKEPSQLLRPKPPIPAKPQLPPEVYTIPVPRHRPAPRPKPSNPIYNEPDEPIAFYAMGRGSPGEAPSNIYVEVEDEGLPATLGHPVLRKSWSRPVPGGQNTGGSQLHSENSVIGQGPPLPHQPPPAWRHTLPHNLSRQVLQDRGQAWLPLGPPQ
UniProt Q9BRG2: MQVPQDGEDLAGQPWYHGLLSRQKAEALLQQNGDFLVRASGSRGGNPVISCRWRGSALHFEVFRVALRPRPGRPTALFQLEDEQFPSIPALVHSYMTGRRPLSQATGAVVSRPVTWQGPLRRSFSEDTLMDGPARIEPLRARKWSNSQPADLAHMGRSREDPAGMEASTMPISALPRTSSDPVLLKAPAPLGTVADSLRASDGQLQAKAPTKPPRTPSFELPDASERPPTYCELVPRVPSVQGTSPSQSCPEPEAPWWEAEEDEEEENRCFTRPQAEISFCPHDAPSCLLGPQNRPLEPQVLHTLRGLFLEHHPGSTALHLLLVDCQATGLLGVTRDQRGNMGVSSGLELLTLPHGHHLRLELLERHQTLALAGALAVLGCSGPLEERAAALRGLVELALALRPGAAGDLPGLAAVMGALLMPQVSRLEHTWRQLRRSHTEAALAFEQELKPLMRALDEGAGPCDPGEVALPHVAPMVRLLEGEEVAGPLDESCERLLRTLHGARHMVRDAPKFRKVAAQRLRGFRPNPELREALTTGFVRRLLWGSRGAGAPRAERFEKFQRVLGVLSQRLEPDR
UniProt P51688: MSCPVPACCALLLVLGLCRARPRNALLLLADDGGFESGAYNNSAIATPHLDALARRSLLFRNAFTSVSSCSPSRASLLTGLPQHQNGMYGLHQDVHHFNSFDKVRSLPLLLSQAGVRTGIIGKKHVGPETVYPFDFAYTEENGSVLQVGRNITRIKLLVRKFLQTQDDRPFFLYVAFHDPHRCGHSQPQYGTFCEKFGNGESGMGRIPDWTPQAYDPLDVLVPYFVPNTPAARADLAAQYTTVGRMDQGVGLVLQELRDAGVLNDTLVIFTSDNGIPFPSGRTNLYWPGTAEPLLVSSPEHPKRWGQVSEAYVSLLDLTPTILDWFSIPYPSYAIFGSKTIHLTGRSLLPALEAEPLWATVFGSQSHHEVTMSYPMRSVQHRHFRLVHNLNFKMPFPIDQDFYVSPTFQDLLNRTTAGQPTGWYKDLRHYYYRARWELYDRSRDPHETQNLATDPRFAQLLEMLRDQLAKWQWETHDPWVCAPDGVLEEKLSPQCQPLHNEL
UniProt Q9H0K1: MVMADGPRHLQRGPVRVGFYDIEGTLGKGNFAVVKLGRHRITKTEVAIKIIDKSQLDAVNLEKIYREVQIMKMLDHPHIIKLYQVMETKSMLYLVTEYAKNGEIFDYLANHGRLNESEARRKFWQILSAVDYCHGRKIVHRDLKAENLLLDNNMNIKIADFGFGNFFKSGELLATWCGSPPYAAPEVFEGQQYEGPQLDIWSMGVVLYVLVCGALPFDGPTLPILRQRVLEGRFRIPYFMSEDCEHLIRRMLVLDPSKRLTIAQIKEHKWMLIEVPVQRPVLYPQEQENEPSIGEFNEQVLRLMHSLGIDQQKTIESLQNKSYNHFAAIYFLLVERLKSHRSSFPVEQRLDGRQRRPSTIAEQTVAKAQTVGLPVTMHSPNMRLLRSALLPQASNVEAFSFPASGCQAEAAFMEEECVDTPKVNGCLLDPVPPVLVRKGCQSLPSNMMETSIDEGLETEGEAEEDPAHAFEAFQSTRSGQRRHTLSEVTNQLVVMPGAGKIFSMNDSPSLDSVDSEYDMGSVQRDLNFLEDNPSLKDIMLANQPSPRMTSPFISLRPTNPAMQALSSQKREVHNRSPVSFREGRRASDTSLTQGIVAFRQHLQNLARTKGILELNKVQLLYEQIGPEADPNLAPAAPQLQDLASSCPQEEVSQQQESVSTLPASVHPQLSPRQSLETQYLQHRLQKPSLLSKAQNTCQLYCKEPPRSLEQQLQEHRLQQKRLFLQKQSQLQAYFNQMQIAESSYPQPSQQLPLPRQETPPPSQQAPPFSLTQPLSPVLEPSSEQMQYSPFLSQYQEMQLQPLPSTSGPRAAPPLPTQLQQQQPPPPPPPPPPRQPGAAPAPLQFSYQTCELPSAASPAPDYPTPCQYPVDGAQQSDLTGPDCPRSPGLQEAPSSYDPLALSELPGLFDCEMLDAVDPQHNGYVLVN
UniProt P05546: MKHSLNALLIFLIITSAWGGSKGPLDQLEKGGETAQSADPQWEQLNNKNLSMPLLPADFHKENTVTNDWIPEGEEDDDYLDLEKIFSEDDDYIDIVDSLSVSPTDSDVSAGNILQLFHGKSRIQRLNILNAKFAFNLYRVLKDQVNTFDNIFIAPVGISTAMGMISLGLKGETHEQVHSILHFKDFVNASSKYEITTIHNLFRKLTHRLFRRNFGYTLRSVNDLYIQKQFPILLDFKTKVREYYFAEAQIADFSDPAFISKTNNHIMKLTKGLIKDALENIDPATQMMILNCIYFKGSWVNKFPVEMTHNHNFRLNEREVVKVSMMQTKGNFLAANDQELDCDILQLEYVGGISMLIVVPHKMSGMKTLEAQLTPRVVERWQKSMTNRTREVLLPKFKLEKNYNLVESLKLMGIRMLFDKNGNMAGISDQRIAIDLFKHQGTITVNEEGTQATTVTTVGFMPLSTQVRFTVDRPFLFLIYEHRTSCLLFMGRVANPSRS

This is one part of the list.

Compound in one test: CCN(CC)Cc1ccc2cc(COC(=O)Nc3ccc(C(=O)NO)cc3)ccc2c1 [givinostat]
Kind of test: log2 fold change, soluble protein after heating vs DMSO (PISA); higher = thermal stabilisation; K562 cells, 10 uM, 30 min; active = over 0.2 and 3.5 SD of the protein, either way, in both replicates (recomputed). The procedure, abridged: (§1)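 K562 cells at 2×10^6 cells/mL were given 10 μM compound for 30 min. Aliquots then went through 3 min of heating across 48°C-58°C, were pooled, and were extracted in PBS with 0.5% NP-40 at 4°C, and the supernatant after 21,000xg for 90 min was quantified by TMTpro 16plex LC-MS/MS with channel sums equalised. Thermal stability relative to control samples, from duplicates, is given as log2 fold change.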
As to SERAC1 (UniProt Q96JX3), the log2 fold change is inactive: 0.153. For the target SERBP1 isoform 3 (UniProt Q8NC51), the log2 fold change was inactive: -0.224.

With SIGIRR (UniProt H0YDR5), the log2 fold change is inactive: -0.14. The same measure, in the same setting: then SIMC1 (UniProt Q8NDZ2), with inactive: 0.401; and SIRT3 (UniProt Q9NTG7), with inactive: -0.044.

As for SH3BGR (UniProt P55822), the log2 fold change is inactive: 0.041.

As to SELENOM (UniProt Q8WWX9), the log2 fold change is inactive: -0.084. Still for that read-out and setting: then SKAP2 (UniProt O75563), with inactive: -0.214; and SEPTIN7 isoform 2 (UniProt Q16181), with inactive: 0.035. Still for that read-out and setting: then SHROOM1 (UniProt Q2M3G4), with inactive: 0.184. As for SH2D2A isoform 2 (UniProt Q9NP31), the log2 fold change was inactive: 0.17. In the case of SH2D3A (UniProt Q9BRG2), the log2 fold change is inactive: 0.14. On the same count and under the same terms, then SGSH (UniProt P51688), with inactive: -0.478.

For the target SIK2 (UniProt Q9H0K1), the log2 fold change is inactive: 0.521.

SERPIND1 (UniProt P05546): the log2 fold change was inactive: -0.197. The same measure, in the same setting: then SERPING1 isoform 3 (UniProt P05155), with inactive: 0.008.

Compound in the next test: CCN(CCCOc1ccc2c(Nc3cc(CC(=O)Nc4cccc(F)c4)[nH]n3)ncnc2c1)CCOP(=O)(O)O [barasertib]
Described as above. The procedure, abridged: as §1
Regarding SERBP1 isoform 3 (UniProt Q8NC51), the log2 fold change was inactive: -0.023. As to SH3BGR (UniProt P55822), the log2 fold change was inactive: 0.078. Still for that read-out and setting: then SERPINB7 (UniProt O75635), with inactive: 0.162; and SHROOM1 (UniProt Q2M3G4), with inactive: -0.051; and SIX5 (UniProt Q8N196), with inactive: -0.107. The same measure, in the same setting: then SIK2 (UniProt Q9H0K1), with inactive: 0.028. SERPINB6, A0A2R8Y7E5: the log2 fold change was inactive: 0.384.
